Data source: PubChem BioAssay AID1224826 (NIAID, 2016)
The deposit covers about 17,000 reagents; shown is a part drawn at random. Of all reagents, about 1,110 (6.6%) got an active call. 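Active means lowered or raised reporter signal; replicate intensities are raw and not normalised per plate.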 Not all columns of the deposit are shown. Reagent sequences are not shown.

Screen: 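Regulators of Tlr4 signalling leading to Tnf-alpha expression in macrophages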 (primary screen)
System: RAW264.7 G9 macrophages from mouse bearing reporters for p65 (GFP) and the Tnf promoter (mCherry)
Reagent: siRNA pool against mouse genes, 100 nM
Duration: 16 h of LPS stimulation, after 2 days of siRNA transfection
Challenge: bacterial lipopolysaccharide (Salmonella minnesota R595), 10 ng/ml
Measured: 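Imaged Tnf reporter mCherry in nuclei, minus background, normalised per plate to the median and expressed as robust z-scores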
Scale: Tnf reporter robust z-score: higher = stronger Tnf promoter reporter signal after LPS
Rule for the call: 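a well counts as active at a score of -1.3 or below (Tlr4 knock-down control median) or above 3 (raised signal); controls and wells holding fewer than 50 cells are excluded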
Calls: active = Tnf reporter clearly lowered or raised; inactive = no clear change in Tnf reporter

Olig2 (oligodendrocyte transcription factor 2) → Tnf reporter robust z-score = -0.75; fewer than 50 cells in well = enough cells in well; call = inactive
Ifitm1 (interferon induced transmembrane protein 1) → Tnf reporter robust z-score = -0.96; fewer than 50 cells in well = enough cells in well; call = inactive
Sult3a1 (sulfotransferase family 3A, member 1) → fewer than 50 cells in well = fewer than 50 cells per well; well left out of calls; call = inactive
Isg15 (ISG15 ubiquitin-like modifier) → Tnf reporter robust z-score = 0.88; fewer than 50 cells in well = enough cells in well; call = inactive
Cbll1 (Cbl proto-oncogene like 1) → Tnf reporter robust z-score = 0.47; fewer than 50 cells in well = enough cells in well; call = inactive
H1f5 (H1.5 linker histone, cluster member) → Tnf reporter robust z-score = 0.22; fewer than 50 cells in well = enough cells in well; call = inactive
Wee1 (WEE 1 homolog 1 (S. pombe)) → fewer than 50 cells in well = fewer than 50 cells per well; well left out of calls; call = inactive
A330070K13Rik (RIKEN cDNA A330070K13 gene) → fewer than 50 cells in well = fewer than 50 cells per well; well left out of calls; call = inactive
Ffar4 (free fatty acid receptor 4) → Tnf reporter robust z-score = -0.87; fewer than 50 cells in well = enough cells in well; call = inactive
Oacyl (O-acyltransferase like) → fewer than 50 cells in well = fewer than 50 cells per well; well left out of calls; call = inactive
Tgm2 (transglutaminase 2, C polypeptide) → Tnf reporter robust z-score = 0.21; fewer than 50 cells in well = enough cells in well; call = inactive
St7l (suppression of tumorigenicity 7-like) → Tnf reporter robust z-score = -0.13; fewer than 50 cells in well = enough cells in well; call = inactive
Bhmt (betaine-homocysteine methyltransferase) → Tnf reporter robust z-score = -0.33; fewer than 50 cells in well = enough cells in well; call = inactive
Tlr1 (toll-like receptor 1) → Tnf reporter robust z-score = 2.15; fewer than 50 cells in well = enough cells in well; call = inactive
Ifitm5 (interferon induced transmembrane protein 5) → Tnf reporter robust z-score = -0.44; fewer than 50 cells in well = enough cells in well; call = inactive
Mark4 (MAP/microtubule affinity regulating kinase 4) → Tnf reporter robust z-score = 0.5; fewer than 50 cells in well = enough cells in well; call = inactive
Arln (allregulin) → fewer than 50 cells in well = fewer than 50 cells per well; well left out of calls; call = inactive
Klf7 (Kruppel-like transcription factor 7 (ubiquitous)) → Tnf reporter robust z-score = -1.17; fewer than 50 cells in well = enough cells in well; call = inactive
Nin (ninein) → Tnf reporter robust z-score = 0.6; fewer than 50 cells in well = enough cells in well; call = inactive
Stat1 (signal transducer and activator of transcription 1) → Tnf reporter robust z-score = -1.06; fewer than 50 cells in well = enough cells in well; call = inactive
Emc4 (ER membrane protein complex subunit 4) → Tnf reporter robust z-score = -0.3; fewer than 50 cells in well = enough cells in well; call = inactive
Inca1 (inhibitor of CDK, cyclin A1 interacting protein 1) → Tnf reporter robust z-score = -0.19; fewer than 50 cells in well = enough cells in well; call = inactive
Fam221b (family with sequence similarity 221, member B) → Tnf reporter robust z-score = -1.41; fewer than 50 cells in well = enough cells in well; call = active
Tor1a (torsin family 1, member A (torsin A)) → Tnf reporter robust z-score = -0.61; fewer than 50 cells in well = enough cells in well; call = inactive
Tmem68 (transmembrane protein 68) → Tnf reporter robust z-score = -0.68; fewer than 50 cells in well = enough cells in well; call = inactive
Zfyve1 (zinc finger, FYVE domain containing 1) → fewer than 50 cells in well = fewer than 50 cells per well; well left out of calls; call = inactive
Neurod2 (neurogenic differentiation 2) → Tnf reporter robust z-score = 0.06; fewer than 50 cells in well = enough cells in well; call = inactive

Reprinted from the entries so far for reference:
Olig2 (oligodendrocyte transcription factor 2) → Tnf reporter robust z-score = -0.75; fewer than 50 cells in well = enough cells in well; call = inactive
Ifitm1 (interferon induced transmembrane protein 1) → Tnf reporter robust z-score = -0.96; fewer than 50 cells in well = enough cells in well; call = inactive
